Source: publication PMC4366261, “Characterization of the Intestinal Absorption of Seven Flavonoids from the Flowers of Trollius chinensis Using the Caco-2 Cell Monolayer Model” (PLoS ONE, 2015)

Assay: Transport experiment across Caco-2 cell monolayer (Papp)
Assay type: in vitro ADME
Conditions: human, standard compounds, validation of the monolayer model
Protocol: For cells differentiation to form a confluent monolayer, Caco-2 cells were seeded into the inserts of the 12-well Transwell plates at the density of 1.0×10^5 cells/cm^2. The culture medium was replaced on every other day in the first week, and then at daily intervals for the apical (AP) side and 2 days intervals for the basal (BL) side until the transport experiment was performed 21 days after seeding. The AP and BL sides contained 0.5 and 1.5 mL of culture medium, respectively. […] The cell inserts were considered as qualified only if the resistance reached above 600 Ω cm^2.
On day 21, the transport experiment was initiated by removal of the culture medium from AP and BL sides. The Caco-2 monolayers were rinsed twice with pre-warmed Hanks balanced salt solution (HBSS) and were incubated with the same solution at 37°C for 30 min. […]
The apparent permeability coefficients (Papp) were determined in this study by HPLC quantification of the compounds in the receiver chamber after transport across the Caco-2 monolayer. […] The percentage transported (%) was calculated using the formula % transported = QB/(CS×VD)×100, wherein QB was the quantity of compound in the receiver compartment (μmol); CS was the concentration of test compound in the donor compartment (μmol/mL); VD was the liquid volume of the donor compartment (mL). […]

CC(C)NCC(O)COc1ccc(CC(N)=O)cc1 (stereo not shown) [atenolol, reference compound]
Papp: 0.463 ×10⁻⁶ cm/s
